Laboratory results published in paper PMC7449928.
Results are given in words; binding and its absence hold for the method and conditions named. In cells and extracts the contact can be indirect. Some results given as binding are weak or reduced against the parent protein; the word gives no strength.

Protein sequences, listed by entry. Tags and fused reporters are not part of them.
UniProt P46937: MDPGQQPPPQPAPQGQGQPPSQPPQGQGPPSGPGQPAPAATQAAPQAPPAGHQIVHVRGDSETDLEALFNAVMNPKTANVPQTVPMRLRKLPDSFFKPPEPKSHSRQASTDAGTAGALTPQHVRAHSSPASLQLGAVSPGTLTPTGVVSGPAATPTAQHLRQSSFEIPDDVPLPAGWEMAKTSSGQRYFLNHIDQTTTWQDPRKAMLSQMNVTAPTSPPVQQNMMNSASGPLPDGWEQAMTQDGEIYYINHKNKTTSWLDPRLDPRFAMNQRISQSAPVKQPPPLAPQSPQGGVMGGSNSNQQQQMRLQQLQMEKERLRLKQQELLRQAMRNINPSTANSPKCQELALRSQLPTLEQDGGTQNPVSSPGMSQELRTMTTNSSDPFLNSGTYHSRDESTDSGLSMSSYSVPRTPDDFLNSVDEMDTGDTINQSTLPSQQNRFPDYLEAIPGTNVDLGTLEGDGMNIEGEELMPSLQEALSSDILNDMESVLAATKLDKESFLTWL
UniProt O60260: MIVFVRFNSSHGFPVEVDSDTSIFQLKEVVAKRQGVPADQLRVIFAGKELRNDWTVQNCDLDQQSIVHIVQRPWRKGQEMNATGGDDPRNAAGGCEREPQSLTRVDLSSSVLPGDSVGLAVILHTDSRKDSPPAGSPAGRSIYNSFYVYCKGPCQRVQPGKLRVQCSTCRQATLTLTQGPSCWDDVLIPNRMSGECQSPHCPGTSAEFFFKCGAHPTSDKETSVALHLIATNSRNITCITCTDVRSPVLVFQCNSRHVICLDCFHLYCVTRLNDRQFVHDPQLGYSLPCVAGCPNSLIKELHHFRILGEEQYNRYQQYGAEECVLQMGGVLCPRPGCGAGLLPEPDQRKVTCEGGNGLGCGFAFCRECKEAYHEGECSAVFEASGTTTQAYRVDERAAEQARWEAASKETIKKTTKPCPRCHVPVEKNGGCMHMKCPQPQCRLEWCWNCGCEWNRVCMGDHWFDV

Assays:
Myc-tagged wild-type YAP = Myc-tagged wild-type YAP (UniProt P46937); test: co-IP; Flag-tagged wild-type or deletion mutants of PARK2 and Myc-tagged wild-type or deletion mutants of YAP; anti-Flag or anti-Myc agarose beads, washed with PBST three times, western blot
[1] = target: YAP (yes-associated protein) in ESCC cells (UniProt P46937); test: co-IP; immuno-precipitation from ESCC cells, western blot
[2] = target: YAP (yes-associated protein) in ESCC cells (UniProt P46937); test: co-IP; immuno-precipitation after separation of cytoplasm and nucleus with a subcellular protein fractionation kit; Tubulin and Lamin B1 as fraction controls

| binding (Myc-tagged wild-type YAP) | binding [1] | binding [2] | Substance |
| --- | --- | --- | --- |
| binds | – | – | Flag-tagged wild-type PARK2 (from UniProt O60260 1-465) |
| – | binds | binds | PARK2 (Parkinson disease protein 2) in ESCC cells (from UniProt O60260 1-465) |
